Laboratory results as given in PubChem BioAssay AID540276 (National Center for Advancing Translational Sciences (NCATS), 2011).
Values joined by “and” are separate entries in the source; they are usually repeats but may differ in a detail not shown here. Identical values can stand only once. In all, about 300,000 compounds went through this assay and about 5,400 (1.8%) were called active. Inconclusive results, whose numbers are uncertain, are shown with a selection of clear calls. The call rests on the fitted dose curve; tested in HEK293 cells. Potencies of inconclusive entries are doubtful fits and often do not repeat. Non-standard residues stand in square brackets, D forms with d. Residues, ends and D or L forms follow the SMILES beside them. ξ: configuration not given here. *: point of attachment. Boc = CC(C)(C)OC(=O)*; NHBn = c1ccc(CN*)cc1; ξV = CC(C)C(N)C(=O)O

assay: qHTS for inhibitors of binding or entry into cells for Marburg Virus; conditions: Marburg virus pseudotyped entry inhibition, cell reporter; series mostly up to 37.8 µM
Potency means the concentration at half of the fitted maximal effect.

| Structure (SMILES) | Potency |
| --- | --- |
| Cc1cccc(C)c1NC(=O)C(C)c1ccc(-c2ccccc2)c(F)c1 (centres undefined) | inconclusive: 35.5 µM [inhibitor, single point] |
| CCS(=O)(=O)c1ccc(OC)c(N=Nc2ccc(O)c3ncccc23)c1 | inconclusive: 12.6 µM [inhibitor, partial curve, poor fit] |
| Cc1c(C(=O)Nc2ccc(Cl)cc2)c2ccccn2c1CCc1ccncc1 | inconclusive: 29.1 µM [inhibitor, single point] |
| Cc1c(C(=O)OCC2CCCO2)[nH]c2c1C(=O)CC(c1ccco1)C2 (centres undefined) | inconclusive: 6.31 µM [inhibitor, single point] |
| CCOC(=O)c1c(C)oc2c1c(C(c1ccncc1)N1CCOCC1)c(O)c1ccccc12 (centres undefined) | inconclusive: 35.5 µM [inhibitor, single point] |
| O=C1CN(C(=O)CSc2nc(-c3ccccc3)cs2)c2ccccc2N1 | inconclusive: 35.5 µM [inhibitor, single point] |
| CCN1CCCC1Cn1cnc2c([nH]c3cccc(Cl)c32)c1=O (centres undefined) | inconclusive: 11.2 µM [inhibitor, partial curve, poor fit] |
| Cc1cc(C)nc(N/N=C/C=C/c2ccccc2)n1 | inactive |
| O=C(OCc1nnc(-c2ccccc2)o1)c1cc([N+](=O)[O-])ccc1Cl | inactive |
| O=C(O)CNc1ccc(S(=O)(=O)C(F)(F)F)cc1[N+](=O)[O-] | inactive |
| COc1ccc(/C=C/C(=O)C2CC2)cc1COc1cccc(C)c1C | inconclusive: 25.1 µM [inhibitor, single point] |
| O=C(O)CN1C(=O)/C(=C\c2ccc(OC(=O)c3ccco3)cc2)SC1=S | inconclusive: 3.16 µM [inhibitor, single point] |
| COc1ccccc1OCC(=O)NNC(=O)Nc1ccc(Cl)cc1 | inconclusive: 5.62 µM [inhibitor, partial curve, poor fit] |
| O=C(NC1CC1)c1ccc(F)cc1Cl | inactive |
| COc1cc(-c2nnc(SCC(=O)Oc3ccccc3)o2)cc(OC)c1OC | inactive |
| Cc1ccc(CNc2ccc(O)cc2)cc1 | inconclusive: 35.5 µM [inhibitor, single point] |
| COCOCCn1cc(CN2CCS(=O)(=O)N(Cc3ccc(-c4ccncc4)cc3)C(C(C)C)C2=O)nn1 (centres undefined) | inconclusive: 0.0177 µM [activator, full curve, poor fit] |
| CC(C)(C)C1=Nn2c(nnc2-c2ccccc2F)SC1 | inactive |
| N#CCCn1cnc2c1NC=NC2Cl (centres undefined) | inconclusive: 0.0063 µM [inhibitor, full curve] |
| COC(=O)C(Cc1ccc(O)cc1)NC(=O)NC12CC3CC(CC(C3)C1)C2 (centres undefined) | inconclusive: 35.5 µM [inhibitor, single point] |
| CC(=O)Nc1nc(C)nc(C)c1C(C)=O | inconclusive: 0.501 µM [activator, full curve, poor fit] |
| Cc1cc(C)c2[nH]c(=O)c(CN(Cc3cccs3)C(=S)NCC3CCCO3)cc2c1 (centres undefined) | inconclusive: 0.794 µM [inhibitor, full curve, poor fit] |
| CCCCc1ccc(NC(=O)Cn2c(=O)c(N3CCCCC3)c(N)n(C)c2=O)cc1 | inconclusive: 15.8 µM [inhibitor, partial curve] |

| Structure (SMILES) | Potency |
| --- | --- |
| COC(=O)c1ccc(Cn2cnc3c(Cl)ncnc32)cc1 | inconclusive: 35.5 µM [inhibitor, single point] |
| COC(=O)C(C)n1nc(C)n(-c2ccc(C)cc2)c1=O (centres undefined) | inactive |
| O=C(Cn1cnc2cc([N+](=O)[O-])ccc2c1=O)NCc1ccccc1 | inconclusive: 2.82 µM [inhibitor, partial curve, poor fit] |
| O=C(CNc1ccc(Oc2ccccc2)cc1)N1CCOCC1 | inactive |
| Cc1cccc(-c2c(NC(=O)c3ccco3)oc3ccc(Cl)cc3c2=O)c1 | inconclusive: 35.5 µM [inhibitor, single point] |
| CC(C)C(=O)N1c2nc(C(C)C)nn2C2(CCCCC2)[C@@H]2CCCC[C@@H]21 | inactive |
| CCC(=O)Nc1nc2ccccc2n1Cc1ccccc1 | inconclusive: 29.1 µM [inhibitor, single point] |
| O=C(NNC(=O)c1cc(-c2ccncc2)nc2ccccc12)c1cccc(Cl)c1 | inconclusive: 3.16 µM [inhibitor, partial curve, poor fit] |
| Cc1cnc(NC(=O)C2CC=CCC2)s1 (centres undefined) | inactive |
| Cc1c(C(=O)NCCNc2ncc(C(F)(F)F)cc2Cl)cccc1[N+](=O)[O-] | inactive |
| CN1CCN(C(=O)C2CCN(S(=O)(=O)c3cnc[nH]3)CC2)CC1 | inactive |
| Cc1cc(NC(=O)CSc2nc3cc(Cl)ccc3c(=O)n2Cc2ccco2)no1 | inconclusive: 7.94 µM [inhibitor, partial curve, poor fit] |
| CCOc1ccc(CNC(=O)CCCc2cn(C)c3ccccc23)cc1 | inconclusive: 1.26 µM [inhibitor, single point] |
| COc1cc(CNn2nnnc2N)cc(Br)c1OCc1c(Cl)cccc1Cl | inconclusive: 29.1 µM [inhibitor, single point] |
| Cc1c(N(C(=O)CNC(=O)c2ccccc2)C2(C(=O)NC3CCCC3)CCCCC2)c(=O)n(-c2ccccc2)n1C | inactive |
| Cc1sc2nc(-c3ccccc3)[nH]c(=O)c2c1-c1ccccc1 | inactive |
| CCOC(=O)c1sc(N2C(=O)C(O)=C(C(=O)c3ccc(C)o3)C2c2ccc(OC)c(OC)c2)nc1C (centres undefined) | inconclusive: 0.282 µM [inhibitor, full curve, poor fit] |
| CCCNC(=O)[C@H]1N2C(=O)c3c(ccc(OC)c3OC)C2SC1(C)C (some centres undefined) | inactive |
| CCN(CC)c1ccc(/C=N/NC(=O)c2cnccn2)cc1 | inconclusive: 0.562 µM [inhibitor, full curve, poor fit] |
| O=c1oc2ccccc2cc1-c1ccc(O)cc1 | inconclusive: 4.47 µM [inhibitor, single point] |
| COc1ccc(-c2nnc(SCc3ccccc3F)o2)cc1 | inconclusive: 35.5 µM [inhibitor, single point] |
| CCN1C(=O)CSC1=Nc1ccc(OC)cc1 | inconclusive: 0.501 µM [inhibitor, partial curve, poor fit] |
| Cc1sc2nc(CN3CCOCC3)nc(NS(=O)(=O)c3ccc4c(c3)OCCO4)c2c1C | inconclusive: 10.3 µM [activator, single point] |

| Structure (SMILES) | Potency |
| --- | --- |
| Clc1ccc(-c2noc(COc3ccccc3)n2)cc1 | inactive |
| O=C(c1ccccc1)c1ncc[nH]1 | inactive |
| Cc1cc(SCC(=O)N/N=C/c2ccc(O)cc2O)nc2ccccc12 | inconclusive: 7.94 µM [inhibitor, partial curve, poor fit] |
| Cn1c(CO)cnc1SCC(=O)c1ccc(Cl)cc1 | inconclusive: 11.2 µM [inhibitor, partial curve] |
| Cc1cc(=O)[nH]c(SCc2cccc3ccccc23)n1 | inconclusive: 6.31 µM [inhibitor, single point] |
| C=CCn1c(COc2ccc3c(c2)CCCC3)nnc1SCC(=O)Nc1cccc(SC)c1 | inconclusive: 29.1 µM [inhibitor, single point] |
| O=C(NCC(c1ccco1)N1CCCCC1)c1cccc(S(=O)(=O)Nc2ccc(F)cc2)c1 (centres undefined) | inconclusive: 25.1 µM [inhibitor, single point] |
| COc1ccc(OCc2cc(C(=O)NCCN3CCCC(O)C3)no2)c(Cl)c1 (centres undefined) | inactive |
| S=C(NCc1ccco1)Nc1cccc(Cl)c1Cl | inconclusive: 20 µM [inhibitor, partial curve, poor fit] |
| COc1ccc(CCOC(=O)c2cccc(NC(C)=O)c2)cc1 | inactive |
| CN1C(=O)/C(=C/c2ccc(-c3ccccc3[N+](=O)[O-])o2)SC1=Nc1ccc(Cl)c(C(=O)O)c1 | inconclusive: 35.5 µM [activator, single point] |
| C=C(Cl)CSC(=S)N(CC)CC | inactive |
| NS(=O)(=O)c1ccc2c(c1)C(=NO)c1cc(S(N)(=O)=O)ccc1-2 | inactive |
| CCCCC1C(=O)N(c2ccccc2)N(c2ccccc2)C1=O | inactive and inconclusive: 50.1 nM [inhibitor, full curve, poor fit] |
| O=C(NCC1CCCCC1)c1cccc(S(=O)(=O)N2CCCC2)c1 | inactive |
| Cc1cccc(C(=O)OCC(=O)NCC2COc3ccccc3O2)c1 (centres undefined) | inconclusive: 0.891 µM [inhibitor, full curve, poor fit] |
| O=C(Nc1ccccc1C(=O)Nc1nnc(C(F)(F)F)s1)c1ccccc1Cl | inconclusive: 35.5 µM [inhibitor, single point] |
| CC(C)C(NC(=O)CNC(=O)OC(C)(C)C)C(=O)NCc1ccccc1 (stereo not drawn) (Boc-Gly-[ξV]-NHBn) | inconclusive: 2.91 µM [activator, partial curve, poor fit] |
| CCN(c1ccccc1)S(=O)(=O)c1ccc(Cl)c(NC(=O)CNC(C)c2ccccc2)c1 (centres undefined) | inconclusive: 35.5 µM [inhibitor, single point] |
| CSc1sc(-c2ccnc(SCCS(C)(=O)=O)n2)c(-c2ccccc2)c1C#N | inconclusive: 35.5 µM [inhibitor, single point] |
| COc1cc(-c2nnc(CSc3nnc(Nc4ccc(Oc5ccccc5)cc4)s3)o2)cc(OC)c1OC | inconclusive: 5.01 µM [inhibitor, full curve, poor fit] |
| CCOC(=O)c1[nH]c2ccc(OC)cc2c1NC(=O)OC | inactive |
| COc1ccc(CCN2C(=O)N(c3ccc(F)cc3)C(=O)C2CC(=O)Nc2ccc(OC)cc2)cc1 (centres undefined) | inconclusive: 35.5 µM [inhibitor, partial curve, poor fit] |
